Reference: PubChem BioAssay AID2685 (National Center for Advancing Translational Sciences (NCATS), 2010)
The campaign covered roughly 320,000 compounds. About 2,100 (0.66%) were called active. Inconclusive means that the source gave no clear call. Such entries were picked first, then a sample of the others. Calls follow the shape of the dose curve; as a rule, active = well fitted inhibition curve with a large enough effect in the signal ratio, with a control signal flat (not every such curve was filed as active); inconclusive = small, poorly fitted or top-dose-only effect, or effect the other way, or a change in a side signal; inactive = flat fitted curve, though single readings scatter; the % refers to the signal ratio. A potency beside an inconclusive call is a rough fit, not a confirmed value.

Assay: qHTS Assay for Lipid Storage Modulators in Drosophila S3 Cells
Conditions: BODIPY lipid droplet fluorescence, 18-24 h, cells fed with added oleic acid; lipid storage change, negative = inhibition: at 46.1 µM (top of the series) unless noted
Outline: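 Drosophila S3 cells got compounds at several concentrations plus oleic acid (400 uM solution). Laser-scanning cytometry with 488 nm excitation read lipid droplets at 500-530 nm and cells at 575-640 nm. Percent activity was relative to 20 uM Triacsin C.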
% is scaled to controls: 0 for no effect and ±100 for the full control effect; potency is read from the fitted curve at half-maximal effect.

Structure (SMILES)	Potency	lipid storage change, negative = inhibition
O=C(CSc1nnc(CNC(=O)c2ccccc2)o1)NCc1ccc2c(c1)OCO2	inconclusive: 32.6 µM [falling, partial curve, poor fit]	–
Cc1cc(Oc2ccc(-c3ccccc3)cc2)n2ncnc2n1	inconclusive: 2.59 µM [falling, partial curve]	–
Nc1cc2c(cc1Cl)N(Cc1ccccc1)C(=O)CO2	inconclusive: 1.46 µM [activator, partial curve]	–
C/C(=N\NC(=O)C(N)=O)c1cccc([N+](=O)[O-])c1	–	inconclusive: 8.96%
Cc1ccc2c(C)nc(NC3=NCN(CCc4ccccc4)CN3)nc2c1	–	inconclusive: -9.43%
CC(=O)C1=NN(c2ccccc2)C(c2ccc3c(c2)OCO3)N1c1ccccc1 (stereo not given)	–	inconclusive: 14%
CCOC(=O)C1CCN(S(=O)(=O)c2ccc3c(c2)N(C(C)=O)CC(C)S3)CC1 (stereo not given)	inconclusive: 11.6 µM [falling, single point]	–
O=c1c2ccccc2[nH]c(=S)n1CCN1CCN(Cc2ccccc2)CC1	inconclusive: 29.1 µM [rising, single point]	–
Cc1ccc(C(=O)NNC(=O)CCCN2C(=O)/C(=C/c3ccccc3Cl)SC2=S)cc1	–	inconclusive: -28.7%
O=C(CN1CCC(C(=O)c2ccc(F)cc2)CC1)NCc1ccccc1F	inconclusive: 6.51 µM [activator, single point]	–
Cc1ccc(/C=N/NC(=O)C(C)Oc2cccc3ccccc23)o1 (stereo not given)	inconclusive: 18.4 µM [activator, partial curve]	–
CC(C)C(OC(=O)c1cc2occc2n1C)C(=O)NCc1ccc2c(c1)OCO2 (stereo not given)	–	inconclusive: 8.3%
FC(F)(F)c1cccc(NC(=S)NNC(=S)NCc2ccccc2)c1	inconclusive: 29.1 µM [falling, single point]	–
O=C(O)c1cccc(N2C(=O)/C(=C/c3ccc([N+](=O)[O-])cc3)C=C2c2ccccc2)c1	inconclusive: 20.6 µM [falling, single point]	–
Cc1cccc(-n2cc(-c3ccccc3)c3c(=O)[nH]cnc32)c1	inconclusive: 6.51 µM [falling, single point]	–
CCC(CC)c1nnc(NC(=O)CS(=O)(=O)c2ccccc2)s1	inconclusive: 10.3 µM [activator, partial curve, poor fit]	–
Cc1ccc(-c2nnc(Nc3ccc4c(c3)OCO4)c3ccccc23)cc1S(N)(=O)=O	–	inconclusive: -57.9%
C=CCNC(=S)Nc1sc2c(c1C(N)=O)CCCC2	–	inconclusive: 9.84%
CCNC(=O)c1ccccc1NC(=O)c1cccc(S(=O)(=O)N2CCOCC2)c1	–	inconclusive: 13.9%
Cc1ccc(S(=O)(=O)NC2=NCN(C(C)C)CN2)cc1	–	inconclusive: 31.8%
O=C(Nc1cccc(C(F)(F)F)c1)Nc1ccc2[nH]c(=O)[nH]c2c1	–	inconclusive: -76.9%
COc1ccc(/C=C2\SC(=S)N(CCC(=O)N3CCCCC3CCO)C2=O)cc1 (stereo not given)	active: 20.6 µM	–
Cc1ccc2oc(C(=O)NCc3ccc4c(c3)OCO4)c(C)c2c1	–	inconclusive: -7.53%
Cc1ccc(-n2nnc3c(=O)n(Cc4ccccn4)cnc32)cc1C	–	inconclusive: -7.83%
CCc1nc2ccccc2c(C(=O)OCC(=O)NCc2ccco2)c1C	–	inactive

Structure (SMILES)	Potency	lipid storage change, negative = inhibition
COc1ccc(C2CC(c3ccccc3)=NN2S(=O)(=O)c2ccccc2)cc1 (stereo not given)	–	inconclusive: -34.5%
Cc1ccc2nc(-c3cccc(NS(C)(=O)=O)c3)cc(-c3ccccc3)c2c1	inconclusive: 29.1 µM [falling, single point]	–
Cc1nnc(SCC(=O)N2CCCC(N3CCN(c4ccc(F)cc4)CC3)C2)o1 (stereo not given)	inconclusive: 0.58 µM [falling, single point]	–
CC(C)C(NC(=O)c1ccccc1)C(=O)OCn1nnc2ccccc2c1=O (stereo not given)	active: 16.4 µM	–
COc1cc(OC)cc(C(=O)N[C@H](C(=O)NCc2ccc(F)cc2)C(C)C)c1	–	inconclusive: -4.7%
O=C(Cc1cccs1)N/N=C/C(Br)=C/c1ccccc1	inconclusive: 20.6 µM [cytotoxic, partial curve]	–
COC(=O)c1ccc(OS(=O)(=O)c2ccc(NC(C)=O)cc2)cc1	–	inconclusive: -7.14%
CC(C(=O)O)N(C(=O)c1ccccc1)c1ccc(F)cc1 (stereo not given)	inconclusive: 29.1 µM [activator, single point]	–
CN(C(=O)c1cccc(C#N)c1)c1nnc(C2CCCO2)s1 (stereo not given)	–	inconclusive: -23.8%
COc1ccc(CCNCC(=O)Nc2ccc(OC(F)(F)F)cc2)cc1OC	inconclusive: 29.1 µM [falling, single point]	–
COc1ccc2nc(C)cc(SCC(=O)NNC(=O)COc3ccccc3)c2c1	–	inconclusive: -25.7%
CCCc1c(C(=O)N/N=C(\C)CCc2ccc(OC)cc2)nnn1-c1nonc1N	–	inconclusive: 338%
CCN(C(=O)CN1C(=O)c2ccccc2S1(=O)=O)C1CCCCC1	–	inconclusive
CN1CCN(C(=O)CCNC(=O)Cn2ccc3ccccc3c2=O)CC1	–	inconclusive: -3.01%
COC(=O)CNC(=O)C(C)NC(=O)OCc1ccccc1 (stereo not given)	inconclusive: 0.366 µM [falling, full curve, poor fit]	–
COc1ccc(NC(=O)C2CCC2)cc1S(=O)(=O)N1CCOCC1	inconclusive: 1.84 µM [activator, partial curve]	–
Cc1ccsc1C(=O)OCC(=O)Nc1cccc(S(=O)(=O)NC2=NCCCCC2)c1	–	inconclusive: -3.69%
CC(=O)N1CCCN(Cc2cn(-c3ccc(C)cc3)nc2-c2ccc(F)cc2)CC1	inconclusive: 32.6 µM [activator, single point]	–
O=C(Nc1cccc(-c2cn3ccccc3n2)c1)c1cccc(Cl)c1	–	inconclusive: -145%
O=C(O)c1cc(-c2ccccc2)nc2ccccc12	–	inconclusive: 7.56%
Cc1ccc(NC(=O)c2ccc3c(c2)OCO3)cc1Cl	inconclusive: 0.0291 µM [falling, full curve]	–
COc1cccc(NC(=O)C(=O)N2CCOCC2)c1	–	inconclusive: 6.7%
COc1cc(NC(=O)c2ccc([N+](=O)[O-])cc2)ccc1NC(=O)C(C)C	–	inconclusive: -4.41%
CCOC(=O)N1CCN(C(=O)C(CC(C)C)NS(=O)(=O)c2ccc(C)cc2)CC1 (stereo not given)	–	inconclusive: -7.39%
CC(=O)O[C@]1(C(C)=O)CC[C@H]2[C@@H]3C[C@H](C)C4=CC(=O)CC[C@]4(C)[C@H]3CC[C@@]21C	–	inconclusive: 30.3%

Look-ups from above:
Potency with COc1ccc(CCNCC(=O)Nc2ccc(OC(F)(F)F)cc2)cc1OC is entered as inconclusive: 29.1 µM [falling, single point]
lipid storage change, negative = inhibition with CN1CCN(C(=O)CCNC(=O)Cn2ccc3ccccc3c2=O)CC1 is entered as inconclusive: -3.01%

(listing goes on)

Structure (SMILES)	Potency	lipid storage change, negative = inhibition
Cc1ccccc1COc1ccc2oc(C)c(C(=O)O)c2c1	–	inconclusive: -11.5%
O=C1OCc2cc(NC(=O)C3CCCCC3)ccc21	–	inconclusive: 12.6%
Cc1cccnc1NC(=O)Cn1nc([N+](=O)[O-])cc1C	–	inconclusive: -6.18%
O=C(NCCc1ccccc1)C1CCCN(S(=O)(=O)c2cccs2)C1 (stereo not given)	–	inconclusive: 34.3%
CC1Cc2ccccc2N1C(=O)COC(=O)c1ccc(Cl)c(S(=O)(=O)N2CCOCC2)c1 (stereo not given)	–	inconclusive: 15.1%
CCOc1cc(C(=O)NCc2ccncc2)cc(OCC)c1OCC	–	inconclusive: 25.1%
O=C(O)c1cnn2c(C(F)F)cc(C3CC3)nc12	–	inconclusive: -0.0116%
O=C(CSc1nc(-c2ccccc2)cs1)N1CCN(C(=O)c2ccco2)CC1	–	inconclusive: -8.97%
CCOCc1c(C(=O)Nc2ccccc2N2CCN(C)CC2)oc2ccccc12	–	inconclusive
CC1CCN(c2ccc(NC(=O)c3cccnc3)cc2)CC1	active: 20.6 µM	–
CS(=O)CSc1nc2c(cc1C#N)CCCC2 (stereo not given)	–	inconclusive: -3.12%
Cc1cc(C)cc(NC(=O)C2C3C=CC(O3)C2C(=O)O)c1 (stereo not given)	inconclusive: 3.66 µM [falling, full curve]	–
COc1ccc(S(=O)(=O)N2CCCN(S(=O)(=O)c3ccc(OC)c(C)c3)CC2)cc1C	inconclusive: 29.1 µM [falling, single point]	–
CCCc1cc(-c2nc(N)ncc2-c2ccc3c(c2)OCCCO3)c(O)cc1OC	inconclusive: 1.84 µM [rising, partial curve]	–
CCc1cc2c(CN(C)Cc3ccccc3F)cc(=O)oc2cc1O	inconclusive: 0.326 µM [activator, partial curve, poor fit]	–
Nc1nnc(SCc2ccccc2F)s1	–	inactive
COc1cccc(CN2CC(C(=O)NCCCc3ccc(C)cc3)CCC2=O)c1 (stereo not given)	–	inconclusive: 21.3%
Cc1c(NC(=O)CCN2C(=O)c3ccccc3C2=O)c(=O)n(-c2ccccc2)n1C	–	inconclusive: 30%
Cc1ccc(/C=C2/Sc3ccc(C(=O)N4CCN(C)CC4)cc3NC2=O)cc1	inconclusive: 6.51 µM [activator, single point]	–
COC(=O)c1ccsc1NC(=O)CN1CCN(c2ccc(F)cc2)CC1	inconclusive: 20.6 µM [activator, partial curve]	–
CC(OC(=O)C1=COCCO1)C(=O)Nc1cc(S(=O)(=O)N2CCCCC2)ccc1Cl (stereo not given)	–	inconclusive: 4.09%
COc1cc2ccccc2cc1C(=O)NC(=S)Nc1ccc(C(=O)O)cc1	active: 18.4 µM	–
Cc1ccc(S(=O)(=O)N2CCN(C(=O)Cn3cnc4c3c(=O)n(C)c(=O)n4C)CC2)cc1C	–	inconclusive: 17.8%
CN1C(=O)C2(C(C#N)=C(N)Oc3n[nH]c(-c4ccc(Cl)cc4)c32)c2ccccc21 (stereo not given)	inconclusive: 4.61 µM [activator, full curve]	–
CCCCN(C(=O)CSc1nnc(-c2ccc(OC)cc2)n1C(C)C)c1c(N)n(Cc2ccccc2)c(=O)[nH]c1=O	–	inconclusive: -34.2% [cytotoxic]

Shown with each value named: 2 of the compounds above
O=C(NCCc1ccccc1)C1CCCN(S(=O)(=O)c2cccs2)C1 (stereo not given)
  lipid storage change, negative = inhibition: inconclusive: 34.3%
CCOCc1c(C(=O)Nc2ccccc2N2CCN(C)CC2)oc2ccccc12
  lipid storage change, negative = inhibition: inconclusive
